For four substances, binding results are on record in article PMC6053364.

The chains behind the UniProt entries cited, without tags or fusion partners. Where a name states a change or a piece, a line headed by the entry shows the natural chain unless it says otherwise.
UniProt Q09028: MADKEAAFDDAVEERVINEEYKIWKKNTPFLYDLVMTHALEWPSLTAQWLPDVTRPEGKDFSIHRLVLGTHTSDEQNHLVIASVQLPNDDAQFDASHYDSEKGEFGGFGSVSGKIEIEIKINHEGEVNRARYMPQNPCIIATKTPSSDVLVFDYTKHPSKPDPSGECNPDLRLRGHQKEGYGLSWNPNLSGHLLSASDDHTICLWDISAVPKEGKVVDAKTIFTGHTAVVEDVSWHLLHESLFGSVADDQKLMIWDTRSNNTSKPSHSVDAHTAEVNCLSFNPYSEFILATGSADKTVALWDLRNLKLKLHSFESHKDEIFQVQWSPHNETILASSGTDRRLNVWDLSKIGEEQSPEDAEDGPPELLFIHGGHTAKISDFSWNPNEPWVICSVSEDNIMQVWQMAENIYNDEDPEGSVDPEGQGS

For assay [1], the target named is ARMC12 with mutation of Valine217 in pBiFC-VN173 (human) (UniProt Q5T9G4). The assay can be described thus: split reporter; BiFC: pBiFC-VN173-ARMC12 and pBiFC-VC155-RBBP4 cotransfected into SH-SY5Y cells for 24 h, grown a further 10 h at 37 C, confocal microscopy.
Assay [2] concerns the target T1, ARMC12 in pBiFC-VN173, wild type (human) (UniProt Q5T9G4).
T1 sequence: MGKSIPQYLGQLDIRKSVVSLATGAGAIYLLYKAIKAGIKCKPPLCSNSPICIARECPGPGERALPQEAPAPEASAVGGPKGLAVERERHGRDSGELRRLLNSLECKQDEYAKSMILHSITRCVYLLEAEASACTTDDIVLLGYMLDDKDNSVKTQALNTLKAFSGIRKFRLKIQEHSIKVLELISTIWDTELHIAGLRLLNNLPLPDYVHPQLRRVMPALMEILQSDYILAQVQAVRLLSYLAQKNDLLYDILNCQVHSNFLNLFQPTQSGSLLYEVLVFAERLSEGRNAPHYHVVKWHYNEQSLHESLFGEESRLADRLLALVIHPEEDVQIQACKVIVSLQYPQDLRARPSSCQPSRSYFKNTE
Described as above.

Assay [3] has as its target FLAG-tagged ARMC12 with mutation of Valine217 (human) (UniProt Q5T9G4). The assay can be described thus: co-IP; SH-SY5Y cells cotransfected with FLAG-tagged ARMC12 (wild type, truncates or mutant) and HA-tagged RBBP4 (wild type, truncates or mutant); FLAG and HA antibodies, western blot. (Immunoblotting shows a protein as a band on a membrane.)
In assay [4] the target is T2, FLAG-tagged ARMC12, wild type (human) (UniProt Q5T9G4).
T2 sequence: T1 sequence
The description is as above.

Results are given in words; binding and its absence hold for the method and conditions named. In cells and extracts the contact can be indirect. For some of these results: Sequences can lack the tags named with a protein.

As for “RBBP4 in pBiFC-VC155, wild type (from UniProt Q09028 1-425)”, in assay [1], the binding result is given as “no binding”.

On to “RBBP4 with mutation of Valine35 in pBiFC-VC155 (from UniProt Q09028)”, for which, in assay [2], the binding entry was “no binding”.

In the case of “HA-tagged RBBP4, wild type (from UniProt Q09028 1-425)”, in assay [3], the binding result was “no binding”. Take “HA-tagged RBBP4 with mutation of Valine35 (from UniProt Q09028)”: the binding entry in assay [4] was “no binding”.
